Test results reported in patent US4098823A, “Monospiroalkyl derivatives of prostaglandins” (Miles Laboratories, Inc., priority 1977, dated 1978).
At least one compound was matched to its structure with a doubt left.

How the values were obtained:
Format in all cases: cell-based
[1] = tested on: Guinea Pig Ileum (PGE1 response); test: Antagonistic Effects on the Guinea Pig Ileum in Vitro, antagonism of PGE1; settings: 0.1 and 1.0 mcg/ml, PGE1 0.1 mcg/ml
[2] = tested on: Guinea Pig Ileum (PGF2α response); test: Antagonistic Effects on the Guinea Pig Ileum in Vitro, antagonism of PGF2α; settings: 0.1 and 1.0 mcg/ml, PGF2α 1 mcg/ml
[3] = tested on: Guinea Pig Trachea; test: Effects on the Guinea Pig Trachea in Vitro; settings: 0.01 to 10.0 mcg/ml, versus PGE1 0.1 mcg/ml, R = relaxation, C = contraction
Protocol: A male guinea pig weighing 200-500 g was killed by a blow on the head. A 20 mm length of the trachea was dissected from the animal, transferred to a petri dish containing Krebs' solution (aerated with 95% O2 and 5% CO2 at 37° C), and cut longitudinally opposite the tracheal muscle. The tissue was then cut transversely three quarters of the distance across, a second cut in the opposite direction (again three quarters of the distance across the tissue) was made and the procedure was continued for the whole tissue. The ends of the trachea were pulled to form a zig-zag shaped strip. The tracheal strip used in the experiment was approximately 30 mm when extended under 0.25-0.5 g load in the tissue bath. Cotton thread was tied to one end of the tissue, and linen thread to the other. It was attached via the linen thread to a glass hook in a 5 ml isolated tissue bath containing Krebs' solution (37° C, aerated with a mixture of 95 % O2 and 5% CO2). […]
A test compound was then added to the same two strips at bath concentrations of 0.01, 0.1, 1.0, and 10.0 mcg/ml and the effects of the compound were recorded. […] The mean of the effects of the test compound on the two strips was then calculated for each concentration, and, based on the resulting values, an activity value was assigned as follows: […]

## COC(=O)CCCCCC[C@H]1C(=O)C=C[C@H]1/C=C/[C@@H](O)C1CC2(CCC2)C1 [TR-4126, Methyl 7-{5-oxo-2R-[3S-hydroxy-3-(spiro[3.3]hept-2-yl)-1E-propenyl]cyclopent-3-en-1R-yl}heptanoate]
[1]
  Test H Antagonism, PGE1, Activity Value: 0 (Less than 50% blockade of PG response)
[2]
  Test H Antagonism, PGF2α, Activity Value: 1 (More than 50% blockade of PG responses and more than 10% antagonism of Ach and/or BaCl2, or production of direct contraction)

## COC(=O)CCCCCC[C@H]1C(=O)C=C[C@H]1/C=C/[C@H](O)C1CC2(CCC2)C1 [TR-4127, Methyl 7-{5-oxo-2R-[3R-hydroxy-3-(spiro[3.3]hept-2-yl)-1E-propenyl]cyclopent-3-en-1R-yl}hepanoate]
[3]
  Test G Guinea Pig Trachea, Activity Value: C1
[1]
  Test H Antagonism, PGE1, Activity Value: 0 (Less than 50% blockade of PG response)
[2]
  Test H Antagonism, PGF2α, Activity Value: 1 (More than 50% blockade of PG responses and more than 10% antagonism of Ach and/or BaCl2, or production of direct contraction)
